The results in this text go back to publication PMC4312126.

Amino acid sequences for entries named in this document (tags omitted).
UniProt P26358: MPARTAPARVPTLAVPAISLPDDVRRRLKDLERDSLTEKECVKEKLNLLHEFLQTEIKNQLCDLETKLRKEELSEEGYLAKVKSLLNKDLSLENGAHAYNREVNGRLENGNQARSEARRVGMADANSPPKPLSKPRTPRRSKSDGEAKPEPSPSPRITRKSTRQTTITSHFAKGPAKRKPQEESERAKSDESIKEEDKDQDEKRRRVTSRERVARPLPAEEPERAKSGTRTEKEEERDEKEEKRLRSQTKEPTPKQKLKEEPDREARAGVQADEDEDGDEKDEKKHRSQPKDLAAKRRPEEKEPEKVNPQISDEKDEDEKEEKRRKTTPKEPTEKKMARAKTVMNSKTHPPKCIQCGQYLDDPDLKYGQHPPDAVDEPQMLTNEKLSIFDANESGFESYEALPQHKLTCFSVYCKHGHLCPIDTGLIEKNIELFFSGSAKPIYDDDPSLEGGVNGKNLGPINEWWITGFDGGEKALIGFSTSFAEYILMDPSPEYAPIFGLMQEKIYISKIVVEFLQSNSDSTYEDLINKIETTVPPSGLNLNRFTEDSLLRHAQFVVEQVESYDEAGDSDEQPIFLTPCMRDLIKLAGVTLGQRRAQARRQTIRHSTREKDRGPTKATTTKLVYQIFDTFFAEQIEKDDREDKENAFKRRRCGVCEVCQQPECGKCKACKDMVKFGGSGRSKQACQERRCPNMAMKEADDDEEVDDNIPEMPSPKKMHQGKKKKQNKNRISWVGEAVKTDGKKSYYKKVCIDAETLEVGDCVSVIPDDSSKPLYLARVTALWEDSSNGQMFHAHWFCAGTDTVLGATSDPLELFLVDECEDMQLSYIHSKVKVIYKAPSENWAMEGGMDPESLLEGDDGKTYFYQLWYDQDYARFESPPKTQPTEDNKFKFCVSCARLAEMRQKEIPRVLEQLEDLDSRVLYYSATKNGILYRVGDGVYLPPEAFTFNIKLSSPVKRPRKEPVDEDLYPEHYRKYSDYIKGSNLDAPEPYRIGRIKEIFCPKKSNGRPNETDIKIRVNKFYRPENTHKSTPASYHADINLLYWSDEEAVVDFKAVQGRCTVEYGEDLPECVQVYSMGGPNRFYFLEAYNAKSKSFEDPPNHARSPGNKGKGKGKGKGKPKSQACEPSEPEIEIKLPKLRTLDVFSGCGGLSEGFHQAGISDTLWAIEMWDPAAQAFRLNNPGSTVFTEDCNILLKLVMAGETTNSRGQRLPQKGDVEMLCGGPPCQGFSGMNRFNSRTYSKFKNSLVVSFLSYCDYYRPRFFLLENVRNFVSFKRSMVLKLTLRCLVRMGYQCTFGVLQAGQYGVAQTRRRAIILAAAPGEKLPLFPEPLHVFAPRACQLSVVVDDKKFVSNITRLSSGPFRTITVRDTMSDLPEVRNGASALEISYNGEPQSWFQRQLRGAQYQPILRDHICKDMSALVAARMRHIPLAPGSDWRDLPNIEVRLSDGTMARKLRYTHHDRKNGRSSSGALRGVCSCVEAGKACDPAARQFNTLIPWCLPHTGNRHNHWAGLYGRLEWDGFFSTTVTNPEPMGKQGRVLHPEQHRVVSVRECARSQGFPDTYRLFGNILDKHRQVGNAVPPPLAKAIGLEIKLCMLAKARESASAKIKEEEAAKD
UniProt Q9UBB5: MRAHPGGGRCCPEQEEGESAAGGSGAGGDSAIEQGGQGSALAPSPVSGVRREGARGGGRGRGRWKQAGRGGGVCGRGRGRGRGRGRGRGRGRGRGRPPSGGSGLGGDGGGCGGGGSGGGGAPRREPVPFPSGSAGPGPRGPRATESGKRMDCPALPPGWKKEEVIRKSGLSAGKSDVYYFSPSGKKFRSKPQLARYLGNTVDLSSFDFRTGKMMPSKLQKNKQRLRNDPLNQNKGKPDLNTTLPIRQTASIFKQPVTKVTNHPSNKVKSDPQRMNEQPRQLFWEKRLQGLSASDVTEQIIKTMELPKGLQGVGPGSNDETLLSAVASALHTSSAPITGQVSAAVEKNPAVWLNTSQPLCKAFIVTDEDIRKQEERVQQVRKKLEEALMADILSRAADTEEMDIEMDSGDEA

Results are given in words; binding and its absence hold for the method and conditions named. Binding seen in cells or lysates may run through a third protein. Some results given as binding are weak or reduced against the parent protein; the word gives no strength. For some assays here: Sequences can lack the tags named with a protein.

The target of one assay is T1, FLAG-δEF1 (wild type) (UniProt P37275).
T1 sequence: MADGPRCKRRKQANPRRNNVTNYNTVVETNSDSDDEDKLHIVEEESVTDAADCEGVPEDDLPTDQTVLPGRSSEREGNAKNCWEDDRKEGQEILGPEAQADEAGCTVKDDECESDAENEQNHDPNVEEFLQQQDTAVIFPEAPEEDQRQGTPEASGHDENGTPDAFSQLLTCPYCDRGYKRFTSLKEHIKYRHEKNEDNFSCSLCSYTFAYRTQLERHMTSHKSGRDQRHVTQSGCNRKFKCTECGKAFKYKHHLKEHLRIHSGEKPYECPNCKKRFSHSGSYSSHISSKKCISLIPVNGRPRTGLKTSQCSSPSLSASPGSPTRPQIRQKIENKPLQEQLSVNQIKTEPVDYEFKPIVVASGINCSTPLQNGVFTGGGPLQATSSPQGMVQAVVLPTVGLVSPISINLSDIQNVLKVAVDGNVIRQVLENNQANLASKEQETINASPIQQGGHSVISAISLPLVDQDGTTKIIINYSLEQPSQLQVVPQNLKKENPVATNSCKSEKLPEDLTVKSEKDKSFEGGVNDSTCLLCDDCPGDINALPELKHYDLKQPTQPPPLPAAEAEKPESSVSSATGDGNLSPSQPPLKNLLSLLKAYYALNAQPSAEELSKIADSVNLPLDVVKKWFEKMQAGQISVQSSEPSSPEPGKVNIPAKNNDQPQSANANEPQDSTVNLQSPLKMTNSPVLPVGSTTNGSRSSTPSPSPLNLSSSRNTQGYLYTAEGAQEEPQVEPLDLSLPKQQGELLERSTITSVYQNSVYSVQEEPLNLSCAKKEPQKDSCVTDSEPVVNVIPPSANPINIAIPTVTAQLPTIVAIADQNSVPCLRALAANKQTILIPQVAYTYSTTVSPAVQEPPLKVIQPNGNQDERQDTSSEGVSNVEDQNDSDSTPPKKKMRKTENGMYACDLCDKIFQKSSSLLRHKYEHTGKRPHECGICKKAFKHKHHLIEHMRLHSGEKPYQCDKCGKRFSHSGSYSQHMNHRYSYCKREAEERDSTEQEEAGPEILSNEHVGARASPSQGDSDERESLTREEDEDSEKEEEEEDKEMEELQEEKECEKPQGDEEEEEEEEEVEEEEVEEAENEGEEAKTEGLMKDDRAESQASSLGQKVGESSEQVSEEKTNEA
The assay is described as follows: co-IP; HEK293 cells transiently transfected, harvested after 24 h; lysis in 20 mmol/L Tris-HCl pH 7.5, 150 mmol/L NaCl, 10 mmol/L EDTA, 1 mmol/L EGTA, 1% Nonidet P-40; IP with anti-FLAG antibody, IB with anti-Myc or anti-HA antibody.

Assay [1] addresses endogenous DNMT1 (human (endogenous in Hs578T)) (UniProt P26358). Nature of the assay: co-IP; endogenous proteins of Hs578T cells; IP with anti-DNMT1 antibody or IgG, IB with anti-DNMT1 or anti-δEF1 antibodies.

As to HA-MBD2 (from UniProt Q9UBB5 1-411), the binding result with FLAG-δEF1 (wild type) is “binds”.

B1: endogenous δEF1 (protein, UniProt P37275 1-1124)
chain: MADGPRCKRRKQANPRRNNVTNYNTVVETNSDSDDEDKLHIVEEESVTDAADCEGVPEDDLPTDQTVLPGRSSEREGNAKNCWEDDRKEGQEILGPEAQADEAGCTVKDDECESDAENEQNHDPNVEEFLQQQDTAVIFPEAPEEDQRQGTPEASGHDENGTPDAFSQLLTCPYCDRGYKRFTSLKEHIKYRHEKNEDNFSCSLCSYTFAYRTQLERHMTSHKSGRDQRHVTQSGCNRKFKCTECGKAFKYKHHLKEHLRIHSGEKPYECPNCKKRFSHSGSYSSHISSKKCISLIPVNGRPRTGLKTSQCSSPSLSASPGSPTRPQIRQKIENKPLQEQLSVNQIKTEPVDYEFKPIVVASGINCSTPLQNGVFTGGGPLQATSSPQGMVQAVVLPTVGLVSPISINLSDIQNVLKVAVDGNVIRQVLENNQANLASKEQETINASPIQQGGHSVISAISLPLVDQDGTTKIIINYSLEQPSQLQVVPQNLKKENPVATNSCKSEKLPEDLTVKSEKDKSFEGGVNDSTCLLCDDCPGDINALPELKHYDLKQPTQPPPLPAAEAEKPESSVSSATGDGNLSPSQPPLKNLLSLLKAYYALNAQPSAEELSKIADSVNLPLDVVKKWFEKMQAGQISVQSSEPSSPEPGKVNIPAKNNDQPQSANANEPQDSTVNLQSPLKMTNSPVLPVGSTTNGSRSSTPSPSPLNLSSSRNTQGYLYTAEGAQEEPQVEPLDLSLPKQQGELLERSTITSVYQNSVYSVQEEPLNLSCAKKEPQKDSCVTDSEPVVNVIPPSANPINIAIPTVTAQLPTIVAIADQNSVPCLRALAANKQTILIPQVAYTYSTTVSPAVQEPPLKVIQPNGNQDERQDTSSEGVSNVEDQNDSDSTPPKKKMRKTENGMYACDLCDKIFQKSSSLLRHKYEHTGKRPHECGICKKAFKHKHHLIEHMRLHSGEKPYQCDKCGKRFSHSGSYSQHMNHRYSYCKREAEERDSTEQEEAGPEILSNEHVGARASPSQGDSDERESLTREEDEDSEKEEEEEDKEMEELQEEKECEKPQGDEEEEEEEEEVEEEEVEEAENEGEEAKTEGLMKDDRAESQASSLGQKVGESSEQVSEEKTNEA
For the molecule B1, the binding entry in assay [1] is given as “binds”.
